No constants are given. Whether binding was seen depends on the method and setting. Some entries that bind do so weakly or less than the wild type.
Biological target: T1, Lsm6 (subunit of the "mostly wild type" Lsm2–8 ring) (S. cerevisiae) (UniProt Q06406)
T1 sequence: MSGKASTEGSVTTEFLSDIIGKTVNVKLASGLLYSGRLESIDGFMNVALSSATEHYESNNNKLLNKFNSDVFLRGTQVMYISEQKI
Assay: crystal structure; U6 snRNP reconstituted from U6 nucleotides 30–112 (A62G, terminal 2′ phosphate), Prp24 1–444 and "mostly wild type" Lsm2–8; hanging drop, 16 °C; PDB 5VSU; both purified

B1: Lsm8 (subunit of the "mostly wild type" Lsm2–8 ring) (protein, UniProt P47093 1-109)
chain: MSATLKDYLNKRVVIIKVDGECLIASLNGFDKNTNLFITNVFNRISKEFICKAQLLRGSEIALVGLIDAENDDSLAPIDEKKVPMLKDTKNKIENEHVIWEKVYESKTK
In the case of B1, the binding is reported as “binds”.
